Values of other authors as cited in patent US20260137665A1, “COMBINATION THERAPIES FOR THE TREATMENT OF CANCER” (AADI Bioscience, Inc., priority 2022, published 2026).
For at least one compound, name, drawing or mass did not settle the structure.

Target: T1, mTORC1 in HUVEC cells (Homo sapiens, UniProt P42345)
T1 construct: and in HUVEC cells (10 nM-1 μM); endogenous in cells; host or cells: HUVEC
Conditions: cited from earlier work

For COC(=O)Nc1ccc(-c2nc(N3CCOCC3)c3cnn(C4CCN(C(=O)OC)CC4)c3n2)cc1 [WYE-354], which “concentrations inhibiting mTORC1” value is on record?
Its value is 10 nM-1 μM.
